{
  "sequences": {"note": "By UniProt entry, the sequences of proteins in these tests, tags left out.", "UniProt Q15599": "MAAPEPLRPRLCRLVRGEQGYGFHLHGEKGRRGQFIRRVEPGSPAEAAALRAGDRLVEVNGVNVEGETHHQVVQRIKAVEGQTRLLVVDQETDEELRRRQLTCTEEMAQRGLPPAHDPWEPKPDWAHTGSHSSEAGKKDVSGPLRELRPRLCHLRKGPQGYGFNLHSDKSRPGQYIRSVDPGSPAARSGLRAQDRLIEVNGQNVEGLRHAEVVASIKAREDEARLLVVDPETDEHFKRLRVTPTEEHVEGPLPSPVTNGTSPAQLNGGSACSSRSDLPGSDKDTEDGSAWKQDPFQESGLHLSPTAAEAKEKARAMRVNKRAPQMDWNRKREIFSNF"},
  "source": "paper PMC12510010",
  "about": "(The Journal of Biological Chemistry, 2025)",
  "molecules": {"B1": {"name": "GST-NHERF4 (natural protein, human, UniProt Q86UT5 1-571, looked up)", "chain": "MVTPSPPGNHSLSLEAPRLHTASDLLGNHSLGLPLITALVGSRDRRGRVFSPVPVPLPTNPTTQHPTRQKLPSTLSGHRVCQAHGEPVLGLCPLLPLFCCPPHPPDPWSLERPRFCLLSKEEGKSFGFHLQQELGRAGHVVCRVDPGTSAQRQGLQEGDRILAVNNDVVEHEDYAVVVRRIRASSPRVLLTVLARHAHDVARAQLGEDAHLCPTLGPGVRPRLCHIVKDEGGFGFSVTHGNQGPFWLVLSTGGAAERAGVPPGARLLEVNGVSVEKFTHNQLTRKLWQSGQQVTLLVAGPEVEEQCRQLGLPLAAPLAEGWALPTKPRCLHLEKGPQGFGFLLREEKGLDGRPGQFLWEVDPGLPAKKAGMQAGDRLVAVAGESVEGLGHEETVSRIQGQGSCVSLTVVDPEADRFFSMVRLSPLLFLENTEAPASPRGSSSASLVETEDPSLEDTSVPSVPLGSRQCFLYPGPGGSYGFRLSCVASGPRLFISQVTPGGSAARAGLQVGDVILEVNGYPVGGQNDLERLQQLPEAEPPLCLKLAARSLRGLEAWIPPGAAEDWALASDLL"}, "B2": {"name": "HA-NHERF3 (protein, UniProt Q5T2W1 1-519)", "chain": "MTSTFNPRECKLSKQEGQNYGFFLRIEKDTEGHLVRVVEKCSPAEKAGLQDGDRVLRINGVFVDKEEHMQVVDLVRKSGNSVTLLVLDGDSYEKAVKTRVDLKELGQSQKEQGLSDNILSPVMNGGVQTWTQPRLCYLVKEGGSYGFSLKTVQGKKGVYMTDITPQGVAMRAGVLADDHLIEVNGENVEDASHEEVVEKVKKSGSRVMFLLVDKETDKRHVEQKIQFKRETASLKLLPHQPRIVEMKKGSNGYGFYLRAGSEQKGQIIKDIDSGSPAEEAGLKNNDLVVAVNGESVETLDHDSVVEMIRKGGDQTSLLVVDKETDNMYRLAHFSPFLYYQSQELPNGSVKEAPAPTPTSLEVSSPPDTTEEVDHKPKLCRLAKGENGYGFHLNAIRGLPGSFIKEVQKGGPADLAGLEDEDVIIEVNGVNVLDEPYEKVVDRIQSSGKNVTLLVCGKKAYDYFQAKKIPIVSSLADPLDTPPDSKEGIVVESNHDSHMAKERAHSTASHSSSNSEDTEM"}, "B3": {"name": "GST-NHERF3 (protein, UniProt Q5T2W1 1-519)", "chain": "B2 chain"}},
  "key": {"GST-NHERF2 [1]": {"target": "T1, GST-NHERF2 (human, UniProt Q15599 1-337)", "T1 construct": "also called E3KARP; GST-tagged NHERF2", "assay": "pull-down; 800 nM purified GST-NHERF1-4 or GST mixed with total lysate (1 mg protein) of HEK 293 cells overexpressing GCC, glutathione beads; GCC on the beads read by its cGMP formation (cGMP ELISA); only the target purified"}, "GST-NHERF3 [2]": {"target": "T2, GST-NHERF3 (human, UniProt Q5T2W1 1-519)", "T2 construct": "also called PDZK1; CAP70", "T2 sequence (looked up)": "B2 chain", "assay": "pull-down; 800 nM purified GST-NHERF1-4 or GST mixed with total lysate (1 mg protein) of HEK 293 cells overexpressing GCC, glutathione beads; GCC on the beads read by its cGMP formation (cGMP ELISA); only the target purified"}, "FLAG-GCC (human) [3]": {"target": "FLAG-GCC (human) (UniProt P25092)", "assay": "co-IP"}, "FLAG-GCC (human) [4]": {"target": "FLAG-GCC (human) (UniProt P25092)", "assay": "co-IP; HEK-293 cells overexpressing FLAG-GCC with HA-NHERF3 or HA-NHERF4, treated with STc (0, 50 and 500 nM) for 30 min; FLAG-GCC immunoprecipitated, anti-HA blot"}, "GST-NHERF2 [5]": {"target": "T1, GST-NHERF2", "assay": "far-Western, overlay or dot blot; dot blot: GST-NHERF1-4 and GST on nitrocellulose, MRP4C50 overlaid, detected with S-protein HRP conjugate; both purified"}, "GST-NHERF3 [6]": {"target": "T2, GST-NHERF3", "assay": "far-Western, overlay or dot blot; dot blot: GST-NHERF1-4 and GST on nitrocellulose, MRP4C50 overlaid, detected with S-protein HRP conjugate; both purified"}, "GST-NHERF4 (human) [7]": {"target": "T3, GST-NHERF4 (human) (UniProt Q86UT5)", "T3 sequence": "B1 chain", "assay": "far-Western, overlay or dot blot; dot blot: GST-NHERF1-4 and GST on nitrocellulose, MRP4C50 overlaid, detected with S-protein HRP conjugate; both purified"}, "GST-His-S-MRP4-C50": {"target": "T4, GST-His-S-MRP4-C50 (UniProt O15439)", "T4 sequence": "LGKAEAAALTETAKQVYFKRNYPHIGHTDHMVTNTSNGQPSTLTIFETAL", "assay": "far-Western, overlay or dot blot; slot blot (macromolecular complex assay): GST-His-S-MRP4-C50 (0, 5 and 20 ug) and GST alone on nitrocellulose, 5 ug GST-NHERF3 overnight at 4 C, then 0.5 ug purified Flag-GCC-C50 at 4 C; detected with a GCC C-terminal specific antibody; both purified"}, "GST-NHERF4 (human) [8]": {"target": "T3, GST-NHERF4 (human)", "assay": "far-Western, overlay or dot blot; dot blot: GST-NHERF1-4 and GST on nitrocellulose, GCCC50 overlaid, probed with in-house anti-GCC rabbit polyclonal antibody; saturating NHERF, > 1.2 pmoles; both purified"}},
  "note": "These are yes or no findings as the source states them, for the method shown. For part of these data: In cells and extracts the contact can be indirect. Some binding calls cover weakened binding; strength is not graded here. For part of these data: Where a sequence is shown, tags or fusion partners need not be part of it.",
  "data": [
    {"molecule": "HA-GCC (from UniProt P25092 24-1073) (receptor)", "values": [
      {"measurement": "binding", "setting": "GST-NHERF2 [1]", "result": "binds"},
      {"measurement": "binding", "setting": "GST-NHERF3 [2]", "result": "binds"}
    ]},
    {"molecule": "B1", "values": [
      {"measurement": "binding", "setting": "FLAG-GCC (human) [3]", "result": "binds"}
    ]},
    {"molecule": "B2", "values": [
      {"measurement": "binding", "setting": "FLAG-GCC (human) [4]", "result": "binds"}
    ]},
    {"molecule": "LGKAEAAALTETAKQVYFKRNYPHIGHTDHMVTNTSNGQPSTLTIFETAL (domain or fragment, UniProt O15439 1276-1325)", "note": "[GST-His-S-MRP4-C50]", "values": [
      {"measurement": "binding", "setting": "GST-NHERF2 [5]", "result": "binds"},
      {"measurement": "binding", "setting": "GST-NHERF3 [6]", "result": "binds"},
      {"measurement": "binding", "setting": "GST-NHERF4 (human) [7]", "result": "binds"}
    ]},
    {"molecule": "B3", "values": [
      {"measurement": "binding", "setting": "GST-His-S-MRP4-C50", "result": "binds"}
    ]},
    {"molecule": "AEFSDMIANSLQKRQAAGIRSQKPRRVASYKKGTLEYLQLNTTDKESTYF (domain or fragment, human, UniProt P25092 1024-1073, looked up)", "note": "[C-terminal 50 amino acids of GCC (GCCC50)]", "values": [
      {"measurement": "binding", "setting": "GST-NHERF4 (human) [8]", "result": "binds"}
    ]}
  ]
}
